Reference: patent US20070111216A1 (priority 2004, published 2007)
At least one structure is not confirmed: it was looked up by name or label, or the drawing left a doubt.

Sequences of proteins named here, by UniProt entry; tags and fusion partners are left off.
UniProt P0A8T7, whole entry: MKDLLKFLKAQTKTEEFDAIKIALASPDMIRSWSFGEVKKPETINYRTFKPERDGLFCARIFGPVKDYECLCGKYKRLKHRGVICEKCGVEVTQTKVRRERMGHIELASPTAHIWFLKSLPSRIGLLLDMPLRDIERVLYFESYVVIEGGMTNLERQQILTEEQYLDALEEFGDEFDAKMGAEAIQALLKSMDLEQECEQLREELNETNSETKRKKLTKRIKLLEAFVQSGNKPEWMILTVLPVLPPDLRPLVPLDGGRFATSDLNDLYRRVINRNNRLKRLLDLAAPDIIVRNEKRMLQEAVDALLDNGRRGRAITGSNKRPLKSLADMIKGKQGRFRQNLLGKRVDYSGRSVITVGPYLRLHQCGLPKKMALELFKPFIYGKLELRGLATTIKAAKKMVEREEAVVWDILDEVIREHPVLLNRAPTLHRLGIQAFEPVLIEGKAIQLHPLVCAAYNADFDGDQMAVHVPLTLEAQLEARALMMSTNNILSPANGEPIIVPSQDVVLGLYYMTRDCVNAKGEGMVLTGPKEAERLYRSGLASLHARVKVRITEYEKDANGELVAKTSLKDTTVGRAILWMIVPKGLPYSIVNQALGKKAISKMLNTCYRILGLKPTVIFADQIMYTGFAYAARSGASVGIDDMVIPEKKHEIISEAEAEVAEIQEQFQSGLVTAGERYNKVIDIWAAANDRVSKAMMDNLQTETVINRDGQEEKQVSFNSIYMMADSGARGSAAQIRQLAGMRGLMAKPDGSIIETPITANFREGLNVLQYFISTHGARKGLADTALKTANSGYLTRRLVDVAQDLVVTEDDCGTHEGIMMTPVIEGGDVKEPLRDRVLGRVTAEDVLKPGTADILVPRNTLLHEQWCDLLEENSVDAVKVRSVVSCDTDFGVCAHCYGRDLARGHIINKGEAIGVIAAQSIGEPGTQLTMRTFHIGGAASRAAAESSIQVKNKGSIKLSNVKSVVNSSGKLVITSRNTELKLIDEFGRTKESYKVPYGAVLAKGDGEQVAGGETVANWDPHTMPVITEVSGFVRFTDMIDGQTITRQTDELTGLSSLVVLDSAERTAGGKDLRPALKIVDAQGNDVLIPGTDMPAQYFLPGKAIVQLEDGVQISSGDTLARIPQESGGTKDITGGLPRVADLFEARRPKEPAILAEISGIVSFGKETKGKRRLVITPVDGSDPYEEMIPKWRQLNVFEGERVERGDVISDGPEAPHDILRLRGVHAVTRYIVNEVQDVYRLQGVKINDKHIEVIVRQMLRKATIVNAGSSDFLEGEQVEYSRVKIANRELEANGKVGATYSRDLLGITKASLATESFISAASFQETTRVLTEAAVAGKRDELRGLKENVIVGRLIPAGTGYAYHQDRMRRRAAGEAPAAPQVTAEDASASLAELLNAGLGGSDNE
UniProt P0A8V2, whole entry: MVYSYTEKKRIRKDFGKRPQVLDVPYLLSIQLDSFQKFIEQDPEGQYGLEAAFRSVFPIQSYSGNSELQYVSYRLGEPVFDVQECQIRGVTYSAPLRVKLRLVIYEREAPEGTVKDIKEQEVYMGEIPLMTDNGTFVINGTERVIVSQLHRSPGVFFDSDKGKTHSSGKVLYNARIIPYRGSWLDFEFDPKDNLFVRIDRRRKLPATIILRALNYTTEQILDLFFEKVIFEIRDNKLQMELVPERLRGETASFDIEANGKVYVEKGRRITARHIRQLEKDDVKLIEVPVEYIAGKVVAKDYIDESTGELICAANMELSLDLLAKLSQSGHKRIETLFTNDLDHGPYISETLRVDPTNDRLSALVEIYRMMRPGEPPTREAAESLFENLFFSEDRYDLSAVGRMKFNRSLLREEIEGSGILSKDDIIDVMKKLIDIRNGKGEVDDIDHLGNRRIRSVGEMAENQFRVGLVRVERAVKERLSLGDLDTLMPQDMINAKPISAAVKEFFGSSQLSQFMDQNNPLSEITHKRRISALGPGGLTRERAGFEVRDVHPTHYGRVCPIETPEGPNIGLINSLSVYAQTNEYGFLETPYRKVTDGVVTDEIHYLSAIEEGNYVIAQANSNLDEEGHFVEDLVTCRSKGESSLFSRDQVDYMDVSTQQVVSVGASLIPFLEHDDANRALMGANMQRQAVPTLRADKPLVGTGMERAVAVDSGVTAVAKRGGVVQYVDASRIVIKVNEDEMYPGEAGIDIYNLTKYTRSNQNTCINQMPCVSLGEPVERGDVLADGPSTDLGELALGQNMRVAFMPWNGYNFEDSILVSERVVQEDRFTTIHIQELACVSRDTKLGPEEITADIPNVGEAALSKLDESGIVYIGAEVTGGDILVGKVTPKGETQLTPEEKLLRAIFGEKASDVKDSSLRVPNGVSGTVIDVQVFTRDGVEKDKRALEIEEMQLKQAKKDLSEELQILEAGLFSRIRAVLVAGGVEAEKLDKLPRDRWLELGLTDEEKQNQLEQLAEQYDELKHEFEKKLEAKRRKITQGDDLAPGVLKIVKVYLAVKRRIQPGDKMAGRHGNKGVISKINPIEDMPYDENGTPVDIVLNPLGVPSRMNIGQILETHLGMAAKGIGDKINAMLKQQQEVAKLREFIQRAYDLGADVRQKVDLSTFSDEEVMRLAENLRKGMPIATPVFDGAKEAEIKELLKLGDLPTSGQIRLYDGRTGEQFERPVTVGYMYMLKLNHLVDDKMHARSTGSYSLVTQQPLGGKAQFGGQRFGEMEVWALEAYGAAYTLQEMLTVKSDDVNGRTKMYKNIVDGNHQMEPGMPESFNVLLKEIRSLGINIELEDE

Assays:
Format in all cases: biochemical
[1] = target: T1, E. coli RNA Polymerase Core Enzyme (Escherichia coli, UniProt P0A8T7+P0A8V2); test: Rolling circle transcription on circular 81mer ssDNA, real-time SYBR Gold fluorescence and gel electrophoresis; settings: 10 μM rifampicin, 10 min preincubation at 37° C., 1 mM each NTP, fluorescence about 3 hours (FIG. 6)
T1 construct: purchased EPICENTRE

[2] = target: T2, E. coli RNA polymerase Holoenzyme (Escherichia coli, UniProt P0A8T7+P0A8V2); test: as above; settings: 10 μM rifampicin, 10 min preincubation at 37° C., 1 mM each NTP, fluorescence about 3 hours (FIG. 6)
T2 construct: purchased EPICENTRE

[3] = target: T1, E. coli RNA Polymerase Core Enzyme; test: Rolling circle transcription on circular 45mer ssDNA monitored in real time (SYBR Gold) and by gel electrophoresis; settings: 1 μM rifampicin, 10 min preincubation at 37° C., 0.5 mM each NTP, about 1.5 hours (FIG. 4)
[4] = target: T2, E. coli RNA polymerase Holoenzyme; test: Rolling circle transcription on circular 38mer ssDNA, products visualized by agarose gel electrophoresis; settings: 37° C. for 2 hours, 0.5 mM each NTP, concentration of inhibitor not printed (FIG. 2)
Method: (§1) A single-stranded circularized 38mer DNA molecule having the same sequence as the circular 38mer used in Example 2 (Sequence I.D. No. 2) was obtained.
(§2) A reaction mixture was prepared comprising 5 pmoles of the circularized 38mer DNA molecule, 1 unit of E. coli RNA Polymerase Holoenzyme (EPICENTRE) or of soy germ RNA polymerase II, 0.5 mM of each NTP and a reaction buffer. The reaction mixture was incubated at 37° C. for 2 hours in the presence or absence of rifampicin or α-amanitin. The reaction products were visualized by agarose gel electrophoresis.

[5] = system: soy germ RNA polymerase II; test: as above; settings: 37° C. for 2 hours, 0.5 mM each NTP, concentration of inhibitor not printed (FIG. 2)
Method: as §1, §2

Compound: CO[C@H]1/C=C/O[C@@]2(C)Oc3c(C)c(O)c4c(O)c(c(/C=N/N5CCN(C)CC5)c(O)c4c3C2=O)NC(=O)/C(C)=C\C=C\[C@H](C)[C@H](O)[C@@H](C)[C@@H](O)[C@@H](C)[C@H](OC(C)=O)[C@@H]1C [rifampicin]
- RNA synthesis in the presence of inhibitor [1]: no RNA was synthesized
- RNA synthesis in the presence of inhibitor [2]: no RNA was synthesized
- RNA synthesis in the presence of inhibitor [3]: no RNA was synthesized
- Inhibition of RNA polymerase activity [4]: inhibited the activity
- Inhibition of RNA polymerase activity [5]: did not have an inhibitory effect
